PubChem BioAssay AID1224830 | NIAID, 2016
Screen: 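Genes whose knock-down alters the TNF-alpha reporter response to LPS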 (primary screen). Cell system: human THP-1 monocytic leukaemia cells, TNF dual-luciferase reporter clone, PMA-differentiated to macrophage-like cells. Reagent: siRNA pool against human genes, 50 nM. Duration: LPS for 4 h, given about 3 days after siRNA transfection. Conditions: bacterial LPS (TLR4 ligand), 10 ng/ml. Measured: 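TNF firefly reporter luminescence divided by renilla, normalised to the plate median, then turned into a robust z-score for each replicate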. Reading the numbers: TNF reporter robust z-score: higher = stronger TNF reporter response to LPS. Call rule: 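Each well counts as active if its z-score is over 2.8 or under -1.5; controls are left without a call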.
Shown is a random part of about 18,000 deposited reagents. About 2,900 of them (16%) were called active. 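Calls are made per well; low scores hint the gene aids the LPS response, high scores that it dampens it.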 A number with no mark means an inactive call. Repeated entries: four replicate wells of each siRNA pool. Reagent sequences are not shown.

| gene | TNF reporter robust z-score |
| --- | --- |
| TAX1BP3 | 1.25 |
| TAX1BP3 | 1.03 |
| TAX1BP3 | 0.19 |
| TAX1BP3 | 1.43 |
| TMEM102 | -0.58 |
| TMEM102 | -0.23 |
| TMEM102 | 0.05 |
| TMEM102 | -0.97 |
| HMX2 | -0.17 |
| HMX2 | 0.91 |
| HMX2 | 0.09 |
| HMX2 | 0.28 |
| SPINT1 | -1.68 (active) |
| SPINT1 | 0.13 |
| SPINT1 | -0.39 |
| SPINT1 | 0.87 |
| KIF1B | 0.52 |
| KIF1B | 0.7 |
| KIF1B | 1.55 |
| KIF1B | -0.2 |
| PUM3 | -0.68 |
| PUM3 | -0.46 |
| PUM3 | -0.54 |
| PUM3 | -0.64 |
| LRRFIP1 | 0.22 |
| LRRFIP1 | 0.92 |
| LRRFIP1 | 0.05 |
| LRRFIP1 | 0.58 |
| P2RX5 | 0.2 |
| P2RX5 | 1.1 |
| P2RX5 | 0.57 |
| P2RX5 | 1.37 |
| SLC39A6 | -0.67 |
| SLC39A6 | -1.34 |
| SLC39A6 | -1.58 (active) |
| SLC39A6 | -1.46 |
| ZNF563 | 0.51 |
| ZNF563 | -0.07 |
| ZNF563 | -0.03 |
| ZNF563 | -0.06 |
| A1BG | -0.17 |
| A1BG | -0.64 |
| A1BG | -0.42 |
| A1BG | 0.43 |
| CDC40 | -0.41 |
| CDC40 | -0.74 |
| CDC40 | 0.02 |
| CDC40 | 0.21 |
| OR6C4 | -0.67 |
| OR6C4 | -0.31 |
| OR6C4 | -0.77 |
| OR6C4 | -0.38 |
| TRNT1 | -0.89 |
| TRNT1 | -0.33 |
| TRNT1 | 0.03 |
| TRNT1 | -0.91 |
| FGR | -0.49 |
| FGR | 0.61 |
| FGR | 0.62 |
| FGR | 1.69 |
| SERPINA6 | 1.8 |
| SERPINA6 | 0 |
| SERPINA6 | -0.26 |
| SERPINA6 | 0.2 |
| SLAMF7 | -0.67 |
| SLAMF7 | 0.52 |
| SLAMF7 | -0.27 |
| SLAMF7 | -0.3 |
| NAT16 | 1.09 |
| NAT16 | 0.41 |
| NAT16 | 1.05 |
| NAT16 | 1.51 |
| AFAP1L1 | -0.13 |
| AFAP1L1 | 1.36 |
| AFAP1L1 | 0.01 |
| AFAP1L1 | -0.22 |
